One molecule from patent US20050251879A1 can be followed below.

Chains of the proteins cited; added tags and fusions are not shown. Lines headed by an entry give the natural chain unless they say otherwise; changes in a name come on top.
UniProt P04386: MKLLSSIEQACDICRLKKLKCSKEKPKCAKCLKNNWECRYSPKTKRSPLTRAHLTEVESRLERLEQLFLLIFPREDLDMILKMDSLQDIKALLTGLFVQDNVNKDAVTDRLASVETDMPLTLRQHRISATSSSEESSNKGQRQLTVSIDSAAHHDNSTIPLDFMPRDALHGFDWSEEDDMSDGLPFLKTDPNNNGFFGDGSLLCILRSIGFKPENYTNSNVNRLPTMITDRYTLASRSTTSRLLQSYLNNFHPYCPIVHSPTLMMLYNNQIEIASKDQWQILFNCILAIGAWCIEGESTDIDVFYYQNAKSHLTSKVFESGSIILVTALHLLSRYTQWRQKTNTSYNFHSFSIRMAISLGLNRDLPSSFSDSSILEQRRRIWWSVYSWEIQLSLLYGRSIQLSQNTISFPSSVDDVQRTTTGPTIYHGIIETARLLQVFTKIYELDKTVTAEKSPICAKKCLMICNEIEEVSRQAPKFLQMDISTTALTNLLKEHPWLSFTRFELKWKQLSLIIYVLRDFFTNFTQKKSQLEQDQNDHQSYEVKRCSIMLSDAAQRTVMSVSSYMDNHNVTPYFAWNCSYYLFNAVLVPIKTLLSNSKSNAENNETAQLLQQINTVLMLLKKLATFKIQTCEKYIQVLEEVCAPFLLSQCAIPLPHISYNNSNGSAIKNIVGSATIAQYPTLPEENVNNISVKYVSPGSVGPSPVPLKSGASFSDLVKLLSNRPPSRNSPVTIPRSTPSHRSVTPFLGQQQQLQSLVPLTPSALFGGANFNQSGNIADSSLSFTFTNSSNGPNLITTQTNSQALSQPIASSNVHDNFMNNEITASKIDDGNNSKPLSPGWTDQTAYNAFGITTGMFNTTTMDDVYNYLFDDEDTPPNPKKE

These are yes or no findings as the source states them, for the method shown. Some results given as binding are weak or reduced against the parent protein; the word gives no strength. Tags and fused reporters may be left off the sequences shown.

In the assay the target is SNF1 fused with the Gal4 binding domain (pBD-SNF1) (UniProt P04386). Kind of assay: yeast two-hybrid, lacZ activity, positive control.

B1: SNF4 fused with the Gal4 activation domain (pAD-SNF4) (protein)
chain: MKPTQDSQEKVSIEQQLAVESIRKFLNSKTSYDVLPVSYRLIVLDTSLLVKKSLNVLLQNSIVSAPLWDSKTSRFAGLLTTTDFINVIQYYFSNPDKFELVDKLQLDGLKDIERALGVDQLDTASIHPSRPLFEACLKMLESRSGRIPLIDQDEETHREIVVSVLTQYRILKFVALNCRETHFLKIPIGDLNIITQDNMKSCQMTTPVIDVIQMLTQGRVSSVPIIDENGYLINVYEAYDVLGLIKGGIYNDLSLSVGEALMRRSDDFEGVYTCTKNDKLSTIMDNIRKARVHRFFVVDDVGRLVGVLTLSDILKYILLGSN
Turning to B1, the binding result is recorded as “binds”.
